What all share (experiment): EMSA
Data set [1] relates to Sox2HMG1/Oct4POU (Mus musculus). The conditions noted are these: purified recombinant protein; label: 5'-Cy5; variant of canonical sox/oct (0).
Data set [2] has as its system Sox17HMG/Oct4POU (Mus musculus). The following applies: purified recombinant protein; label: 5'-Cy5.
For data set [3], the system named is Sox2KE HMG/Oct4POU Sox2 K95E (Mus musculus). The conditions noted are these: purified recombinant protein; label: 5'-Cy5.
Data set [4] has as its system Sox2alpha17 HMG/Oct4POU Sox2 8 helix-3 residues replaced by Sox17 counterparts (mutagenic oligo SEQ 10) (Mus musculus). The conditions noted are these: purified recombinant protein, label: 5'-Cy5.
The test system of data set [5] is Sox7HMG/Oct4POU (Mus musculus). The following applies: purified recombinant protein; label: 5'-Cy5.
Data set [6] has as its system Sox2HMGs (core HMG)/Oct4POU (Mus musculus). The following applies: purified recombinant protein; label: 5'-Cy5; variant of Nanog canonical.

Chains of the proteins cited; added tags and fusions are not shown. A change or cut given only in a name is not applied to a line headed by its entry. A line that says so, or that is headed by a name, gives the form on record, which may keep a tag or linker.
Sox7HMG/Oct4POU (Mus musculus), one chain, as listed by the source, chain 1 of 2: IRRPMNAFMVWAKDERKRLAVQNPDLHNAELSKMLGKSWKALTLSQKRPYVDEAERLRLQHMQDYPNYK
Sox2HMG1/Oct4POU (Mus musculus), one chain, as listed by the source, chain 2 of 2: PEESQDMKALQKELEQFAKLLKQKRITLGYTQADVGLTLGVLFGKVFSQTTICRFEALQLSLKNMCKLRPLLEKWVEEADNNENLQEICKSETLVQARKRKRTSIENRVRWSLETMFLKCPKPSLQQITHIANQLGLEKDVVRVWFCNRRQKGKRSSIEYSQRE
Sox2HMG1/Oct4POU (Mus musculus), one chain, as listed by the source, chain 1 of 2: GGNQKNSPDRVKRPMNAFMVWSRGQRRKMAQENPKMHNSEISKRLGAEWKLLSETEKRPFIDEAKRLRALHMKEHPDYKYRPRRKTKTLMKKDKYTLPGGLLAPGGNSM
Sox17HMG/Oct4POU (Mus musculus), one chain, as listed by the source, chain 1 of 2: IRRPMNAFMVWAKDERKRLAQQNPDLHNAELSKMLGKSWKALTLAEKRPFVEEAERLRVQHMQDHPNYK

For some of these results: A negative result means that nothing was seen under these conditions. For some of these results: Weaker means in comparison with the reference protein, sequence or condition of that experiment. For some of these results: For at least one entry, the source does not settle the construct or the ends of the probe.

Turning to “GCGCGGCATTGTCGGATGCAAATCGGCGGC (double strand) [spacer 2]”, the binding result in data set [1] is listed as “binds more weakly”.
Still for that read-out and setting: the entry for “CGGCATTGTCGCGGGCGGATGCAAATCGGC (double strand) [spacer 8]” is “binds more weakly”.
On to “CATGGACATTGTAATGCAAAAGAAGCTG (double strand) [Nanog canonical]”, for which the binding result in data set [2], in data set [3] and in data set [4] was “binds more weakly” in each case.
For “CGGCATTGTCGCGGGCGGCATGCAAATCGG (double strand) [spacer 9]”, in data set [1], the binding result is “binds more weakly”.
As for “GGCGCGGCATTGTCGATGCAAATCGGCGGC (double strand) [spacer 1]”, in data set [1], the binding result is reported as “binds more weakly”.
Regarding “CGCGGCATTGTCGGGCGATGCAAATCGGCG (double strand) [spacer 5]”, in data set [1], the binding result is “binds more weakly”.
With “GGCGCGGCATTGTCATGCAAATCGGCGGCG (double strand) [canonical sox/oct (0)]”, the binding result in data set [2] and in data set [5] was “binds more weakly” throughout.
Take “CGCGGCATTGTCGGGCATGCAAATCGGCGG (double strand) [spacer 4]”: the binding result in data set [1] is “binds more weakly”.
For the sequence “GGCGCGGCATTGTCATTTGCATCGGCGGCG (double strand) [convergent]”, the binding result in data set [1] is reported as “binds more weakly”.
Same read-out and setting: under “GGCGCGGGACAATGATGCAAATCGGCGGCG (double strand) [divergent]” stands “binds more weakly”; under “GCGCGGCATTGTCGGCATGCAAATCGGCGG (double strand) [spacer 3]”, “binds more weakly”.
Consider “GCGGCATTGTCCGGGCGATGCAAATCGGCG (double strand) [spacer 6]”, for which the binding result in data set [1] is reported as “binds more weakly”.
In the case of “GGCATTGTCCGCGGGCGGCATGCAAATCGG (double strand) [spacer 10]”, the binding result in data set [1] was “binds more weakly”.
Take “CTGGACATTGTATGCAAAAGAA (double strand) [Nanog' compressed (-1)]”: the binding result is “no binding” in data set [6] and “binds” in data set [4] (variant of Nanog canonical).
As for “GCGGCATTGTCCGGGCGGATGCAAATCGGC (double strand) [spacer 7]”, the binding result in data set [1] was “binds more weakly”.

(Values after patent publication US20120220029.)
